Experiment [1] deals with Sec16A(650-776) site 2 mutant, GFP fusion (human) (UniProt O15027). Kind of experiment: co-IP.
Experiment [2] deals with Sec16A(650-776) site 1 mutant, GFP fusion (human) (UniProt O15027). Kind of experiment: co-IP.
In experiment [3] the target is mitochondrial form of Sec16A(650-776), site 1 mutant (human) (UniProt O15027). Kind of experiment: mitochondrial relocation assay.
The target of experiment [4] is mitochondrial form of Sec16A(650-776), site 2 mutant (human) (UniProt O15027). Kind of experiment: mitochondrial relocation assay.

Protein sequences, listed by entry. Tags and fused reporters are not part of them. Lines headed by an entry give the natural chain unless they say otherwise; changes in a name come on top.
UniProt O15027: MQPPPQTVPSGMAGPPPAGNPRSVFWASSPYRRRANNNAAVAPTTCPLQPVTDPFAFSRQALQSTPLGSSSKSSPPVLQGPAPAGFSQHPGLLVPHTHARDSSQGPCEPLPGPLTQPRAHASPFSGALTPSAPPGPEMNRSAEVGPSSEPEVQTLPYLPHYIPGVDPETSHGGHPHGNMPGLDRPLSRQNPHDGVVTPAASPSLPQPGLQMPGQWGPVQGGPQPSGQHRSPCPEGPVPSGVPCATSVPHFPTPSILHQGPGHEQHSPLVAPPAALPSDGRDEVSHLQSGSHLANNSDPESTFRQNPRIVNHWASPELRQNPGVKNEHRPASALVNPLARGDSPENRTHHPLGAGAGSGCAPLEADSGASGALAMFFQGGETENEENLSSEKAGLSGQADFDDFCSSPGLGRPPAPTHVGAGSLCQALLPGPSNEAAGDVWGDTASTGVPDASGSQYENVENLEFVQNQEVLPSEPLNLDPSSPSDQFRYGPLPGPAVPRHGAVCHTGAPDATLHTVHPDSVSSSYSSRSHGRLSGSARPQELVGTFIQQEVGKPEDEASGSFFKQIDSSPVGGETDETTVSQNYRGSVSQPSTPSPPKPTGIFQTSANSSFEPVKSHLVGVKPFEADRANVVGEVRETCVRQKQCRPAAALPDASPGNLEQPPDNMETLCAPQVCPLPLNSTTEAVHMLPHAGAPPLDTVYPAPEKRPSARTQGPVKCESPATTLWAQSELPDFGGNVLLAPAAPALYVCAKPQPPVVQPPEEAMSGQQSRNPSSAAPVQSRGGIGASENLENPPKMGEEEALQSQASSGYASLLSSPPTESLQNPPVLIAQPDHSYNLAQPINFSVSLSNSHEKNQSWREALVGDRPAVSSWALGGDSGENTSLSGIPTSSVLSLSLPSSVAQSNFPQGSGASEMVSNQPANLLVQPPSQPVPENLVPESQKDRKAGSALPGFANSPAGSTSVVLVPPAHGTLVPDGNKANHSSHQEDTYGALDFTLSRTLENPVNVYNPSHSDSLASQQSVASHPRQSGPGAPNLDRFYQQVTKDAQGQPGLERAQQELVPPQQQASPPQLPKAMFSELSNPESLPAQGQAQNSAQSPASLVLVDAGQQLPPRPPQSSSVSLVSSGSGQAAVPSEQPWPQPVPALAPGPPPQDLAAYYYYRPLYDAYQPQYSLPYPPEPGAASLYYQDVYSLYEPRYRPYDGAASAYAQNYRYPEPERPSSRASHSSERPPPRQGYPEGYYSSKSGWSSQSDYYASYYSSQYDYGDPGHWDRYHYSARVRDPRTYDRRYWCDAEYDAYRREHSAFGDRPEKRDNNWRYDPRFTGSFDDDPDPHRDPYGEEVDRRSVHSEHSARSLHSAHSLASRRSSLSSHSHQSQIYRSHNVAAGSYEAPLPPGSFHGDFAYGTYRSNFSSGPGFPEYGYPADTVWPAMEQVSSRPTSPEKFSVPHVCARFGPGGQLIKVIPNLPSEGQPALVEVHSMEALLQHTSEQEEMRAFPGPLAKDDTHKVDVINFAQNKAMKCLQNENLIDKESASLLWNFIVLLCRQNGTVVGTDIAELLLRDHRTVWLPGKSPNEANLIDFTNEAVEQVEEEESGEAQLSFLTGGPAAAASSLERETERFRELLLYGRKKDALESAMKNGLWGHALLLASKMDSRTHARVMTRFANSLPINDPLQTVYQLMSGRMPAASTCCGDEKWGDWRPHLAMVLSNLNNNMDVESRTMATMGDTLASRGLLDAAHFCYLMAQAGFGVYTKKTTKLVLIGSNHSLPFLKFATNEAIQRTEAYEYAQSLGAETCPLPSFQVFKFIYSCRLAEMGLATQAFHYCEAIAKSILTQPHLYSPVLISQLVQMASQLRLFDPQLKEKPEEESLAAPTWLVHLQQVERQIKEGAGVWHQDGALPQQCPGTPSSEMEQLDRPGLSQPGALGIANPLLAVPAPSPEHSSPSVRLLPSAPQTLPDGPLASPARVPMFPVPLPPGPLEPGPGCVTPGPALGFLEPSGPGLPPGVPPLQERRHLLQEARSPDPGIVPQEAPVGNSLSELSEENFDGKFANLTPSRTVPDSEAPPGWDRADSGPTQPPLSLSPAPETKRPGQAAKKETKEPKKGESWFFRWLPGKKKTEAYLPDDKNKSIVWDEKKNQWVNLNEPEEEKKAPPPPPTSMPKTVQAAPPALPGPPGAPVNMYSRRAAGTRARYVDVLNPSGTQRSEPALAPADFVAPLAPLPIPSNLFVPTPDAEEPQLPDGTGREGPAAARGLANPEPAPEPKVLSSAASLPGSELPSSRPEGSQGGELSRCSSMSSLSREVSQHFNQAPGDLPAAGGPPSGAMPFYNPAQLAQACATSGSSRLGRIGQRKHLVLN

Results are given in words; binding and its absence hold for the method and conditions named. For some of these results: Binding seen in cells or lysates may run through a third protein.

B1: endogenous p115 (HEK293T) (protein, UniProt O60763 1-962)
chain: MNFLRGVMGGQSAGPQHTEAETIQKLCDRVASSTLLDDRRNAVRALKSLSKKYRLEVGIQAMEHLIHVLQTDRSDSEIIGYALDTLYNIISNEEEEEVEENSTRQSEDLGSQFTEIFIKQQENVTLLLSLLEEFDFHVRWPGVKLLTSLLKQLGPQVQQIILVSPMGVSRLMDLLADSREVIRNDGVLLLQALTRSNGAIQKIVAFENAFERLLDIISEEGNSDGGIVVEDCLILLQNLLKNNNSNQNFFKEGSYIQRMKPWFEVGDENSGWSAQKVTNLHLMLQLVRVLVSPTNPPGATSSCQKAMFQCGLLQQLCTILMATGVPADILTETINTVSEVIRGCQVNQDYFASVNAPSNPPRPAIVVLLMSMVNERQPFVLRCAVLYCFQCFLYKNQKGQGEIVSTLLPSTIDATGNSVSAGQLLCGGLFSTDSLSNWCAAVALAHALQENATQKEQLLRVQLATSIGNPPVSLLQQCTNILSQGSKIQTRVGLLMLLCTWLSNCPIAVTHFLHNSANVPFLTGQIAENLGEEEQLVQGLCALLLGISIYFNDNSLESYMKEKLKQLIEKRIGKENFIEKLGFISKHELYSRASQKPQPNFPSPEYMIFDHEFTKLVKELEGVITKAIYKSSEEDKKEEEVKKTLEQHDNIVTHYKNMIREQDLQLEELRQQVSTLKCQNEQLQTAVTQQVSQIQQHKDQYNLLKIQLGKDNQHQGSYSEGAQMNGIQPEEIGRLREEIEELKRNQELLQSQLTEKDSMIENMKSSQTSGTNEQSSAIVSARDSEQVAELKQELATLKSQLNSQSVEITKLQTEKQELLQKTEAFAKSVEVQGETETIIATKTTDVEGRLSALLQETKELKNEIKALSEERTAIKEQLDSSNSTIAILQTEKDKLELEITDSKKEQDDLLVLLADQDQKILSLKNKLKDLGHPVEEEDELESGDQEDEDDESEDPGKDLDHI
Consider B1, for which the binding entry in experiment [1] and in experiment [2] was “no binding” each time.

B2: endogenous p115 (HeLa) (protein, UniProt O60763 1-962)
chain: MNFLRGVMGGQSAGPQHTEAETIQKLCDRVASSTLLDDRRNAVRALKSLSKKYRLEVGIQAMEHLIHVLQTDRSDSEIIGYALDTLYNIISNEEEEEVEENSTRQSEDLGSQFTEIFIKQQENVTLLLSLLEEFDFHVRWPGVKLLTSLLKQLGPQVQQIILVSPMGVSRLMDLLADSREVIRNDGVLLLQALTRSNGAIQKIVAFENAFERLLDIISEEGNSDGGIVVEDCLILLQNLLKNNNSNQNFFKEGSYIQRMKPWFEVGDENSGWSAQKVTNLHLMLQLVRVLVSPTNPPGATSSCQKAMFQCGLLQQLCTILMATGVPADILTETINTVSEVIRGCQVNQDYFASVNAPSNPPRPAIVVLLMSMVNERQPFVLRCAVLYCFQCFLYKNQKGQGEIVSTLLPSTIDATGNSVSAGQLLCGGLFSTDSLSNWCAAVALAHALQENATQKEQLLRVQLATSIGNPPVSLLQQCTNILSQGSKIQTRVGLLMLLCTWLSNCPIAVTHFLHNSANVPFLTGQIAENLGEEEQLVQGLCALLLGISIYFNDNSLESYMKEKLKQLIEKRIGKENFIEKLGFISKHELYSRASQKPQPNFPSPEYMIFDHEFTKLVKELEGVITKAIYKSSEEDKKEEEVKKTLEQHDNIVTHYKNMIREQDLQLEELRQQVSTLKCQNEQLQTAVTQQVSQIQQHKDQYNLLKIQLGKDNQHQGSYSEGAQMNGIQPEEIGRLREEIEELKRNQELLQSQLTEKDSMIENMKSSQTSGTNEQSSAIVSARDSEQVAELKQELATLKSQLNSQSVEITKLQTEKQELLQKTEAFAKSVEVQGETETIIATKTTDVEGRLSALLQETKELKNEIKALSEERTAIKEQLDSSNSTIAILQTEKDKLELEITDSKKEQDDLLVLLADQDQKILSLKNKLKDLGHPVEEEDELESGDQEDEDDESEDPGKDLDHI
As to B2, the binding entry in experiment [3] and in experiment [4] was “no binding” throughout.

These data come from paper doi:10.1101/2025.10.16.682774 (bioRxiv, 2025).
